Data from the supplement of paper PMC12067093, “Discovery and optimisation of a covalent ligand for TRIM25 and its application to targeted protein ubiquitination” (Chemical Science, 2025).
The list shows a part of the results.

Protein sequences, listed by entry. Tags and fused reporters are not part of them. Lines headed by an entry give the natural chain unless they say otherwise; changes in a name come on top.
UniProt Q9BTW9: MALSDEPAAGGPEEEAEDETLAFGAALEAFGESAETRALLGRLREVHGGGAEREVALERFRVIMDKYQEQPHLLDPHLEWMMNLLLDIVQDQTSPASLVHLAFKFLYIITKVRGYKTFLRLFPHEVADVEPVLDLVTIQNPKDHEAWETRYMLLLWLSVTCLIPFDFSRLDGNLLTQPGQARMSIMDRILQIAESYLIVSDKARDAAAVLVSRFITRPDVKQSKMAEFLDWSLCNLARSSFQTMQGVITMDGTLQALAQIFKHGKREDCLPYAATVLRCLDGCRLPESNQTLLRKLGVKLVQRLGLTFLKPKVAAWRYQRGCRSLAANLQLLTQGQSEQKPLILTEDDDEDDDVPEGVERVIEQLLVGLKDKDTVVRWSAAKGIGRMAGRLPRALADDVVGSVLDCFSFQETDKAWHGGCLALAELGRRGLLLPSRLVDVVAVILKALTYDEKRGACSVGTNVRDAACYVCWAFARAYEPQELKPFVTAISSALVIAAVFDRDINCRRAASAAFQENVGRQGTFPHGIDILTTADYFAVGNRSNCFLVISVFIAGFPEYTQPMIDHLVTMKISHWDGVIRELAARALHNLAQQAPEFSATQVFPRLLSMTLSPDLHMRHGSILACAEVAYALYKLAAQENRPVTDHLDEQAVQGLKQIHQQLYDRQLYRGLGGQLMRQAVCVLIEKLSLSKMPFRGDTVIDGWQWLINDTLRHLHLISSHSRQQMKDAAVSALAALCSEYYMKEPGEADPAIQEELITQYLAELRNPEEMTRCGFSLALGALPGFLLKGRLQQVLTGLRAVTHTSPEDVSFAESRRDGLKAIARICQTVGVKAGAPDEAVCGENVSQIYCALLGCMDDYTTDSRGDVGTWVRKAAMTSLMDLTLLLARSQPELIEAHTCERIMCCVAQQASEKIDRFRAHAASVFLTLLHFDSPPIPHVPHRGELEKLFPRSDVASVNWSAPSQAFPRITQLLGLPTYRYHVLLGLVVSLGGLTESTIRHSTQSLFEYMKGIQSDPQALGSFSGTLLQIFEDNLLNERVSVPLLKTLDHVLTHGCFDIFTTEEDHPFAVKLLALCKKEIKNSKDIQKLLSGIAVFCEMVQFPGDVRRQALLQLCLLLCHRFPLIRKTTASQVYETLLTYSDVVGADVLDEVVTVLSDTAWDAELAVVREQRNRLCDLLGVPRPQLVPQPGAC
UniProt Q6P1N9: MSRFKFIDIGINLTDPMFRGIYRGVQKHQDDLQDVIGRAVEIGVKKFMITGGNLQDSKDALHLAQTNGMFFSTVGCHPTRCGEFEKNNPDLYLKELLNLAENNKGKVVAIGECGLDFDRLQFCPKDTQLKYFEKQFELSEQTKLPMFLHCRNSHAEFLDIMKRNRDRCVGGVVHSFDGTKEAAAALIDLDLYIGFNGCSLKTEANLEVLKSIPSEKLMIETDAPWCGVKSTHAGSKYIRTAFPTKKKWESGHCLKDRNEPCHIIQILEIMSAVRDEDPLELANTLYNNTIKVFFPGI
UniProt Q9C0D5: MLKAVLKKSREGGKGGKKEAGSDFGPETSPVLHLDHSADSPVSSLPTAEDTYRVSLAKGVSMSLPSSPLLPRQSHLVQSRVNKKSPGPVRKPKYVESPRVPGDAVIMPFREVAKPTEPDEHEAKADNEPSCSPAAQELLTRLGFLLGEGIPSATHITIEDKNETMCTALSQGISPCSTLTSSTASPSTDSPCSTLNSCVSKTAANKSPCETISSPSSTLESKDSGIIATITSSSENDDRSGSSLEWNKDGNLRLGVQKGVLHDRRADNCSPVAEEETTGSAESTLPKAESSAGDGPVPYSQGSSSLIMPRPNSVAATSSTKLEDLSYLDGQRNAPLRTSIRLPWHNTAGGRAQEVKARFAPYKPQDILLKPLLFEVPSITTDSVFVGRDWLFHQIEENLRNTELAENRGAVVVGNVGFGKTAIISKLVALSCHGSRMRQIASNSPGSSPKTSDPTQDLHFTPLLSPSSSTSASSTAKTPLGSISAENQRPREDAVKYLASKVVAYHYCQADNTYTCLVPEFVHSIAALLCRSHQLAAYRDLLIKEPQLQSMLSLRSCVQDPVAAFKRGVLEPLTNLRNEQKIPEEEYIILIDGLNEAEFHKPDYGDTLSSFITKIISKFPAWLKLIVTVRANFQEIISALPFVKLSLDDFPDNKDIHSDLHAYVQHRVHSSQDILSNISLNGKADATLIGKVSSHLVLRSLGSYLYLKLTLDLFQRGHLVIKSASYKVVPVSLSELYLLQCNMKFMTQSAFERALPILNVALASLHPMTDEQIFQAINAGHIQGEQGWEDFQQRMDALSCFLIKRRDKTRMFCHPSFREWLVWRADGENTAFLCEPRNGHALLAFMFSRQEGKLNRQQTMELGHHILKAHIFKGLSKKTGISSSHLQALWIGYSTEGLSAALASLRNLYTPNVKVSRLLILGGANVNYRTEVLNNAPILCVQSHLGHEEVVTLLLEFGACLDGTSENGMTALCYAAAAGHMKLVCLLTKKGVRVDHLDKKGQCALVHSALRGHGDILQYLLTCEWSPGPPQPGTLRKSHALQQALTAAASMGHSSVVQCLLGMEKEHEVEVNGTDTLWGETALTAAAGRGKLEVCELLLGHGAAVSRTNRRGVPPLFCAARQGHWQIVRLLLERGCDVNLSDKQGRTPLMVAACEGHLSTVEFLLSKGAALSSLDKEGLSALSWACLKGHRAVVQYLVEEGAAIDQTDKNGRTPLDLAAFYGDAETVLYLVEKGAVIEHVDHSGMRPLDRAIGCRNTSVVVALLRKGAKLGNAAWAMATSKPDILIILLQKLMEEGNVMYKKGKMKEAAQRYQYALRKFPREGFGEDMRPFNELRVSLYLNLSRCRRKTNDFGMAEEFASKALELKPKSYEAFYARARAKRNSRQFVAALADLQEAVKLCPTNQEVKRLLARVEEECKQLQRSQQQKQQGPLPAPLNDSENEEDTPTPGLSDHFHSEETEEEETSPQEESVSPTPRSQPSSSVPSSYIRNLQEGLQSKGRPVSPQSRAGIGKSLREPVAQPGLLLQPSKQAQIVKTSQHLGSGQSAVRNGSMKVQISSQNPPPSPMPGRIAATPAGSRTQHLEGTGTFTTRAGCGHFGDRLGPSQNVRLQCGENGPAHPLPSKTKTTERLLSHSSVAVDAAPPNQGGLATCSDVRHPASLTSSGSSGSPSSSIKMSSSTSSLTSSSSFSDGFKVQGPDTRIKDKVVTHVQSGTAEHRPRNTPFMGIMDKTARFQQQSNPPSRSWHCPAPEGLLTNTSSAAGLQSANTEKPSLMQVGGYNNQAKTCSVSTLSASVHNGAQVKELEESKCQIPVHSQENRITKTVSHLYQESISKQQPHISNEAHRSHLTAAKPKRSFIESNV
UniProt Q13395: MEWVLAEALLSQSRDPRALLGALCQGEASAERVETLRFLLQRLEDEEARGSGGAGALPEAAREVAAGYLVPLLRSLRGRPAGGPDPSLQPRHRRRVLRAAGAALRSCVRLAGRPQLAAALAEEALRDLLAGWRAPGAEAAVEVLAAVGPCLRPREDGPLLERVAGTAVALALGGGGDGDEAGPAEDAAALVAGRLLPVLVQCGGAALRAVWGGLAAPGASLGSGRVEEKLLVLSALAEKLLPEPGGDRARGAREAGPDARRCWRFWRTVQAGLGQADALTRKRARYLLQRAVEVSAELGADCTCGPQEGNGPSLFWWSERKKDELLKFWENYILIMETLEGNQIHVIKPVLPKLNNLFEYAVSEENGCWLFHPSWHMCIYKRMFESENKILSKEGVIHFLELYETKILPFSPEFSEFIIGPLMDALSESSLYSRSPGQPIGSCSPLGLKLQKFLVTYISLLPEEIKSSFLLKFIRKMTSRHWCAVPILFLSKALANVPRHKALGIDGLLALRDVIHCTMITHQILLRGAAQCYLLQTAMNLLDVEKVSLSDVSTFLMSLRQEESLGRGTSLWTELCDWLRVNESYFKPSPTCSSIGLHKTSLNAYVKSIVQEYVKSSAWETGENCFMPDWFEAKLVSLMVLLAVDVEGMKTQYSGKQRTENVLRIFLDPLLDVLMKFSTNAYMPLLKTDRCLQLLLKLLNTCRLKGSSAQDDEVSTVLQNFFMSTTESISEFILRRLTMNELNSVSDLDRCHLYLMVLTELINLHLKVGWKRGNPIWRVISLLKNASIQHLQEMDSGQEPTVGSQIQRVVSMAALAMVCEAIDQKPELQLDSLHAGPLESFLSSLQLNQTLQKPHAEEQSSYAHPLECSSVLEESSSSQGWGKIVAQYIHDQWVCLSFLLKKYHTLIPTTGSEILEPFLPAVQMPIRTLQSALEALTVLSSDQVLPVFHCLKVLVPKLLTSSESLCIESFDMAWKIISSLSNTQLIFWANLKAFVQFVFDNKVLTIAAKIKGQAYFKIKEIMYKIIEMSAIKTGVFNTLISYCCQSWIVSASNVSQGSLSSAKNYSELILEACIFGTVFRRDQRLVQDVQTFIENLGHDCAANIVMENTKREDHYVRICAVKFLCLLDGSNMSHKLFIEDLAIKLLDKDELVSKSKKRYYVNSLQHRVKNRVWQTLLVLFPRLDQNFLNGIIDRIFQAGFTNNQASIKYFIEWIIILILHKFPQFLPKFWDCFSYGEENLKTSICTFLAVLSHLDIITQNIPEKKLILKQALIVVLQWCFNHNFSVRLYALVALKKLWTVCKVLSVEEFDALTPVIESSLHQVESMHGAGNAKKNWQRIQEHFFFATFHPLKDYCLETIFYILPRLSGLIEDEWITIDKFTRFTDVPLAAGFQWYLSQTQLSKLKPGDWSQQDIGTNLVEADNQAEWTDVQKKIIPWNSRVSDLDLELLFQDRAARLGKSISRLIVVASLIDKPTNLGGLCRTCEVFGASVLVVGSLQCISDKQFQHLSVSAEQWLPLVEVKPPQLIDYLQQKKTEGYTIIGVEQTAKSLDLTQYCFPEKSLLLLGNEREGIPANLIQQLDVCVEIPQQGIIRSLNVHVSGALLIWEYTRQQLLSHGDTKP
UniProt P26639: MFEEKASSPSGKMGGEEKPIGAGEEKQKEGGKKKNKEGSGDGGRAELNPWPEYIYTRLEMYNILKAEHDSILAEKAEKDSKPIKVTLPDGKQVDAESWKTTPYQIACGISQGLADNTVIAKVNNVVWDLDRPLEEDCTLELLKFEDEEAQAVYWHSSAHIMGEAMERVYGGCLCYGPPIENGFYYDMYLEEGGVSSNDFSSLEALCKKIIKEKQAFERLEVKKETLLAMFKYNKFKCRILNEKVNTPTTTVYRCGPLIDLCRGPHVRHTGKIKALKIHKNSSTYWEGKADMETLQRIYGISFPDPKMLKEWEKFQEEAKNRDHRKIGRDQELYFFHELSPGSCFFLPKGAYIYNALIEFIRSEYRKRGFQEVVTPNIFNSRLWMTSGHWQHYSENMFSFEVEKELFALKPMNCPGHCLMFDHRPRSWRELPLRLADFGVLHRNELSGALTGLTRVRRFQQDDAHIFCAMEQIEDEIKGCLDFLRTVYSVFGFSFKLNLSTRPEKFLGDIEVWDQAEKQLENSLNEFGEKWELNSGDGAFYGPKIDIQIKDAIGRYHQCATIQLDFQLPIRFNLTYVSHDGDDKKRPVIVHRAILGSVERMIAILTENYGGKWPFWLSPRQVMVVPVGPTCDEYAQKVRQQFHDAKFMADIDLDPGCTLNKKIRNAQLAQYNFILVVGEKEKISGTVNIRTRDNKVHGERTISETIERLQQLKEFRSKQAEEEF
UniProt O75410: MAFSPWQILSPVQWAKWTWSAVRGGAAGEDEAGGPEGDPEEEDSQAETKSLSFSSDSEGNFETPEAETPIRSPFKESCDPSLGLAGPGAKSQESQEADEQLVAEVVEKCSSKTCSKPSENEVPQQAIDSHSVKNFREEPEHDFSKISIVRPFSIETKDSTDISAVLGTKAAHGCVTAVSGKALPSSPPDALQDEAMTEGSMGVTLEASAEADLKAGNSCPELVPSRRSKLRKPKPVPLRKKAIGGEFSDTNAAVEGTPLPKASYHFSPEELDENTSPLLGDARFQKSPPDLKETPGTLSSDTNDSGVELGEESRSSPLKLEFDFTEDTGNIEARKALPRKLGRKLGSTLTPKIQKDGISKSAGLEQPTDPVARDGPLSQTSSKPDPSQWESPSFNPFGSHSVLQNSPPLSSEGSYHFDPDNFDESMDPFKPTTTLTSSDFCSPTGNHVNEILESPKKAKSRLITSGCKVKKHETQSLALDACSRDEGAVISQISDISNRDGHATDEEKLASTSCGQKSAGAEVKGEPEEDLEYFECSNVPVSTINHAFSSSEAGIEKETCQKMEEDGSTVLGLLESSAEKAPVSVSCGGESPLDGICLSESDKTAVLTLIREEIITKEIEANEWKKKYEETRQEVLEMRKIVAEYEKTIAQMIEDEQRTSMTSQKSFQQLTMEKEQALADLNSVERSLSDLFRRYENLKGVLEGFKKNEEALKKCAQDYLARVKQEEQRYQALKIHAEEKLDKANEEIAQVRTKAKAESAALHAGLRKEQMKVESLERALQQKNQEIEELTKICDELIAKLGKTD

compound: CC1Cc2ccccc2N1C(=O)C1CCCN(C1)C(=O)CCl (mixture of isomers) [TRIM25 ligand 11 (diastereomer mixture)]; experiment: probe-labelled cysteine peptide fold change vs DMSO (competition) (log2 fold change); higher = less target engagement (more negative = stronger competition); settings: 50 µM; THP-1; incubation time: 4 h
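Further: competitive chemoproteomic profiling in live THP-1 cells with an iodoacetamide desthiobiotin (IA-DTB) probe, comparing probe-labelled peptide intensities in compound-treated cells against DMSO-treated controls.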

Target | probe-labelled cysteine peptide fold change
SYK_P43405_206_DNNGSYALCLLHEGK (UniProt P43405) | 0.0975
TBCD_Q9BTW9_899_SQPELIEAHTCER (UniProt Q9BTW9) | 0.152
TATDN1_Q6P1N9_168_CVGGVVHSFDGTK (UniProt Q6P1N9) | -0.00576
TACO1_Q9BSH4_234_FICDASSLHQVR (UniProt Q9BSH4) | 0.00692
TANC1_Q9C0D5_800_MDALSCFLIK (UniProt Q9C0D5) | 0.0229
TARBP1_Q13395_592_VNESYFKPSPTCSSIGLHK (UniProt Q13395) | -0.264
TBCE_Q15813_371_CEILPEER (UniProt Q15813) | -0.0491
TAF2_Q6P1X5_357_CLAQSLAQQFFGCFISR (UniProt Q6P1X5) | -0.862
TARSL2_A2RTX5_546_FQQDDAHIFCTVEQIEEEIK (UniProt A2RTX5) | 0.235
TBC1D15_Q8TC07_184_YVVLCESPQDK (UniProt Q8TC07) | 0.215
SZT2_Q5T011_2339_CPVVVDSSSAQNGAPR (UniProt Q5T011) | -0.0679
TANC1_Q9C0D5_1611_LQCGENGPAHPLPSK (UniProt Q9C0D5) | -0.149
TARS_P26639_630_QVMVVPVGPTCDEYAQK (UniProt P26639) | -0.0844
TACC1_O75410_482_KHETQSLALDACSR (UniProt O75410) | -0.387
TBCD_Q9BTW9_269_REDCLPYAATVLR (UniProt Q9BTW9) | 0.0383
TACC3_Q9Y6A5_662_CEELHGK (UniProt Q9Y6A5) | -0.0764
SYPL1_Q16563_193_IATGHNIIDELPPCK (UniProt Q16563) | -0.0907

Some values from the list:
Value of TARS_P26639_630_QVMVVPVGPTCDEYAQK (UniProt P26639) under probe-labelled cysteine peptide fold change: -0.0844
Value of TACC1_O75410_482_KHETQSLALDACSR (UniProt O75410) under probe-labelled cysteine peptide fold change: -0.387
